# Source: paper doi:10.1101/2025.06.17.660062 (bioRxiv, 2025)
# Changes are numbered by the printed parent chain. These are yes or no findings as the source states them, for the method shown. Some results given as binding are weak or reduced against the parent protein; the word gives no strength. For part of these data: Sequences can lack the tags named with a protein.
# How the values were obtained:
# [1] = target: T1, GST-BUB1 467−521^FE (F500A-E501A) (UniProt O43683); assay: SEC
# T1 sequence: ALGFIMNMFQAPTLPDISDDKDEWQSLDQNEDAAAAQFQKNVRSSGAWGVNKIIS
# [2] = target: T2, GST-BUB1 467−521^FFE (F475A, F500A-E501A) (UniProt O43683); assay: SEC
# T2 sequence: T1 sequence with F9A
# [3] = target: T1, GST-BUB1 467−521^FE (F500A-E501A); assay: pull-down
# [4] = target: T3, GST-BUB1^477-521 (UniProt O43683); assay: pull-down
# T3 sequence: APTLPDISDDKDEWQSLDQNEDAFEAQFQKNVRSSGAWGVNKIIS
# [5] = target: T2, GST-BUB1 467−521^FFE (F475A, F500A-E501A); assay: pull-down
# [6] = target: mCherry-RZZ (ROD-Zwilch-ZW10 complex, wild type) (UniProt P50748); assay: SEC
binding [1],binding [2],binding [3],binding [4],binding [5],binding [6],Substance
no binding,no binding,no binding,binds weakly,no binding,–,"mCherry-RZZ (ROD-Zwilch-ZW10 complex, wild type) (from UniProt P50748 1-2209; Q9H900 1-591; O43264 1-779)"
–,–,–,–,–,no binding,BUBR1:BUB3 (from UniProt O60566 1-1050; O43684 1-328) (complex)
